Changes are numbered by the printed parent chain. Names may count otherwise. These are yes or no findings as the source states them, for the method shown. Some results given as binding are weak or reduced against the parent protein; the word gives no strength. For part of these data: Tags and fused reporters may be left off the sequences shown.
B1: Smc4 V721C (cross-linkable hinge condensin) (protein, UniProt Q12267 1-1418)
chain: MSDSPLSKRQKRKSAQEPELSLDQGDAEEDSQVENRVNLSENTPEPDLPALEASYSKSYTPRKLVLSSGENRYAFSQPTNSTTTSLHVPNLQPPKTSSRGRDHKSYSQSPPRSPGRSPTRRLELLQLSPVKNSRVELQKIYDRHQSSSKQQSRLFINELVLENFKSYAGKQVVGPFHTSFSAVVGPNGSGKSNVIDSMLFVFGFRANKMRQDRLSDLIHKSEAFPSLQSCSVAVHFQYVIDESSGTSRIDEEKPGLIITRKAFKNNSSKYYINEKESSYTEVTKLLKNEGIDLDHKRFLILQGEVENIAQMKPKAEKESDDGLLEYLEDIIGTANYKPLIEERMGQIENLNEVCLEKENRFEIVDREKNSLESGKETALEFLEKEKQLTLLRSKLFQFKLLQSNSKLASTLEKISSSNKDLEDEKMKFQESLKKVDEIKAQRKEIKDRISSCSSKEKTLVLERRELEGTRVSLEERTKNLVSKMEKAEKTLKSTKHSISEAENMLEELRGQQTEHETEIKDLTQLLEKERSILDDIKLSLKDKTKNISAEIIRHEKELEPWDLQLQEKESQIQLAESELSLLEETQAKLKKNVETLEEKILAKKTHKQELQDLILDLKKKLNSLKDERSQGEKNFTSAHLKLKEMQKVLNAHRQRAMEARSSLSKAQNKSKVLTALSRLQKSGRINGFHGRLGDLGVIDDSFDVAISTACPRLDDVVVDTCECAQHCIDYLRKNKLGYARFILLDRLRQFNLQPISTPENVPRLFDLVKPKNPKFSNAFYSVLRDTLVAQNLKQANNVAYGKKRFRVVTVDGKLIDISGTMSGGGNHVAKGLMKLGTNQSDKVDDYTPEEVDKIERELSERENNFRVASDTVHEMEEELKKLRDHEPDLESQISKAEMEADSLASELTLAEQQVKEAEMAYVKAVSDKAQLNVVMKNLERLRGEYNDLQSETKTKKEKIKGLQDEIMKIGGIKLQMQNSKVESVCQKLDILVAKLKKVKSASKKSGGDVVKFQKLLQNSERDVELSSDELKVIEEQLKHTKLALAENDTNMNETLNLKVELKEQSEQLKEQMEDMEESINEFKSIEIEMKNKLEKLNSLLTYIKSEITQQEKGLNELSIRDVTHTLGMLDDNKMDSVKEDVKNNQELDQEYRSCETQDESEIKDAETSCDNYHPMNIDETSDEVSRGIPRLSEDELRELDVELIESKINELSYYVEETNVDIGVLEEYARRLAEFKRRKLDLNNAVQKRDEVKEQLGILKKKRFDEFMAGFNIISMTLKEMYQMITMGGNAELELVDSLDPFSEGVTFSVMPPKKSWRNITNLSGGEKTLSSLALVFALHKYKPTPLYVMDEIDAALDFRNVSIVANYIKERTKNAQFIVISLRNNMFELAQQLVGVYKRDNRTKSTTIKNIDILNRT
B2: Smc2 of unmodified (wild-type) S. cerevisiae condensin (protein, UniProt P38989 1-1170)
chain: MKVEELIIDGFKSYATRTVITDWDPQFNAITGLNGSGKSNILDAICFVLGIASMSTVRASSLQDLIYKRGQAGVTKASVTIVFDNTDKSNSPIGFTNSPQISVTRQVVLGGTSKYLINGHRAPQQSVLQLFQSVQLNINNPNFLIMQGKITKVLNMKPSEILSLIEEAAGTKMFEDRREKAERTMSKKETKLQENRTLLTEEIEPKLEKLRNEKRMFLEFQSTQTDLEKTERIVVSYEYYNIKHKHTSIRETLENGETRMKMLNEFVKKTSEEIDSLNEDVEEIKLQKEKELHKEGTISKLENKENGLLNEISRLKTSLSIKVENLNDTTEKSKALESEIASSSAKLIEKKSAYANTEKDYKMVQEQLSKQRDLYKRKEELVSTLTTGISSTGAADGGYNAQLAKAKTELNEVSLAIKKSSMKMELLKKELLTIEPKLKEATKDNELNVKHVKQCQETCDKLRARLVEYGFDPSRIKDLKQREDKLKSHYYQTCKNSEYLKRRVTNLEFNYTKPYPNFEASFVHGVVGQLFQIDNDNIRYATALQTCAGGRLFNVVVQDSQTATQLLERGRLRKRVTIIPLDKIYTRPISSQVLDLAKKIAPGKVELAINLIRFDESITKAMEFIFGNSLICEDPETAKKITFHPKIRARSITLQGDVYDPEGTLSGGSRNTSESLLVDIQKYNQIQKQIETIQADLNHVTEELQTQYATSQKTKTIQSDLNLSLHKLDLAKRNLDANPSSQIIARNEEILRDIGECENEIKTKQMSLKKCQEEVSTIEKDMKEYDSDKGSKLNELKKELKLLAKELEEQESESERKYDLFQNLELETEQLSSELDSNKTLLHNHLKSIESLKLENSDLEGKIRGVEDDLVTVQTELNEEKKRLMDIDDELNELETLIKKKQDEKKSSELELQKLVHDLNKYKSNTNNMEKIIEDLRQKHEFLEDFDLVRNIVKQNEGIDLDTYRERSKQLNEKFQELRKKVNPNIMNMIENVEKKEAALKTMIKTIEKDKMKIQETISKLNEYKRETLVKTWEKVTLDFGNIFADLLPNSFAKLVPCEGKDVTQGLEVKVKLGNIWKESLIELSGGQRSLIALSLIMALLQFRPAPMYILDEVDAALDLSHTQNIGHLIKTRFKGSQFIVVSLKEGMFANANRVFRTRFQDGTSVVSIM
B3: Smc4-StrepII3 of unmodified (wild-type) S. cerevisiae condensin (protein, UniProt Q12267 1-1418)
chain: B1 chain with C721V

How the values were obtained:
[1] = biological target: T1, Smc2 K639C (cross-linkable hinge condensin) (S. cerevisiae) (UniProt P38989); experiment: cross-linking
T1 sequence: B2 chain with K639C

[2] = biological target: T2, Brn1-His12-HA3, kleisin subunit of S. cerevisiae condensin (S. cerevisiae) (UniProt P38170); experiment: co-purification
T2 sequence: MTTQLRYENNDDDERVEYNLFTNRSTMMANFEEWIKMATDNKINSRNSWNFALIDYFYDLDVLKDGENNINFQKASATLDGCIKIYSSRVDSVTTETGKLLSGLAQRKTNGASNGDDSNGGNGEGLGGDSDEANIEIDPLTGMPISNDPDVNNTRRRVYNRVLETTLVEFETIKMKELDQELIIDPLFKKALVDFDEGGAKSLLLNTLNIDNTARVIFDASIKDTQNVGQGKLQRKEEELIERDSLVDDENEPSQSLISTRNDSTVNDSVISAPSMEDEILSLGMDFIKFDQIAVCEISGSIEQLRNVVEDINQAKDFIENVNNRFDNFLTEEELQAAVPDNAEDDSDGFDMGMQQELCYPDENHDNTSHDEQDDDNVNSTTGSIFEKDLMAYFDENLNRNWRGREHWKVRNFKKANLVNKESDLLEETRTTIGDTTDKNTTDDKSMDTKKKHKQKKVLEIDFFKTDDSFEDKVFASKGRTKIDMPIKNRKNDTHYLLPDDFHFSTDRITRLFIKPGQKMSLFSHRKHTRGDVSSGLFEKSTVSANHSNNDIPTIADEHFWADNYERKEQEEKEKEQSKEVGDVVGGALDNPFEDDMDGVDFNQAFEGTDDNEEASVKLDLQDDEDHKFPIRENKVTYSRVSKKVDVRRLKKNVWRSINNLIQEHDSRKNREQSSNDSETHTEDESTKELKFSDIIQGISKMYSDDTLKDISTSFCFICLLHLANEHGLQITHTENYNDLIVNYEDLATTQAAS

Row | Binder | binding [1] | binding [2]
1 | B1 | binds | 
2 | B2 |  | binds
3 | B3 |  | binds

— paper doi:10.1101/2021.10.29.466147 (bioRxiv, 2021)
